From patent US20230041859A1, “USE OF TERPENOIDS IN THE TREATMENT OR PREVENTION OF FIBROTIC DISEASES” (Arjil Biotech Holding Company Limited, priority 2021, published 2023)
At least one compound was matched to its structure with a doubt left.

Test system: MPO
Assay: Bleomycin-induced pulmonary fibrosis: lung myeloperoxidase (MPO) assay
Type: in vivo, mice
Conditions: Dex positive control (7.5 mg/kg); vs BLM group p<0.001
Procedure: Mice were divided into fifth groups with 5 animals per group according to body weight: control group, BLM group, BLM+DEX group (7.5 mg/kg), BLM+ACH dosage group (50 mg/kg), and BLM+ACM dosage group (25 mg/kg), BLM+ACH dosage group (50 mg/kg), and BLM+ACM dosage group (25 mg/kg) BLM+AH dosage group (50 mg/kg), and BLM+AM dosage group (25 mg/kg) BLM+BH dosage group (50 mg/kg), and BLM+BM dosage group (25 mg/kg) BLM+CH dosage group (50 mg/kg), and BLM+CM dosage group (25 mg/kg) BLM+DH dosage group (50 mg/kg), and BLM+DM dosage group (25 mg/kg) BLM+EH dosage group (50 mg/kg), and BLM+EM dosage group (25 mg/kg) BLM. Pulmonary fibrosis (PF) was established in mice via a single intratracheal administration of BLM at 7.5 mg/kg mg/kg body weight. Different doses of samples were intragastrically administered daily for 21 days after BLM injury, and DEX was used as the positive control. Control and model groups received an equal volume of vehicle (0.9% NaCl) using the same schedule and route of administration.
1. Group I: control; 2. Group II: mice received single intraperitoneal injection of BLM (7.5 mg/kg BW) 3. Group III: single dose (ACH, 0.5 g/kg) 4. Group IV: Single dose (ACM, 1.0 g/kg) 5. […] Group VII: purified AR101-DS2 (50 mg/kg) 8. […]
The lung tissues were homogenized and the MPO levels were detected with the kits according to manufacturer's instruction.

Compound: C[C@@H]1C[C@H]2[C@@H]3CCC4=CC(=O)C=C[C@]4(C)[C@@]3(F)[C@@H](O)C[C@]2(C)[C@@]1(O)C(=O)CO [DEX, Dexamethasone, reference compound]
- lung MPO activities: evidently suppressed
